Data published in PubChem BioAssay AID1347076 (National Center for Advancing Translational Sciences (NCATS), 2019).
Hit rate of the full screen: of about 400,000 compounds, about 13,000 (3.2%) were called active. Inconclusive results, whose numbers are uncertain, are shown with a selection of clear calls. Calls follow the shape of the dose curve; as a rule, active = well fitted cell-killing curve with a large enough effect; inconclusive = small, poorly fitted or top-dose-only effect, or effect the other way; inactive = flat fitted curve, though single readings scatter. Potencies of inconclusive entries are doubtful fits and often do not repeat.

Test: qHTS assay for MDR1-selective chemotherapeutics: Primary screen using the drug-selected MDR subline cells KB-V1; also: nearly all actives have a fitted effect of over 60% in size
Conditions: KB-V1 MDR cells viability, CellTiter-Glo, 72 h; activity change, negative = cytotoxicity: at 46.1 µM (top of the series)
Summary of the method: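 KB-V1 cells (P-gp-expressing MDR subline of KB-3-1) in phenol-red-free DMEM with 10% FBS were exposed to library compounds over a concentration series for 72 h at 37 degrees C. Viability read by CellTiter-Glo luminescence; concentration-effect curves fitted after normalization.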
% is scaled to controls: 0 for no effect and ±100 for the full control effect; potency is read from the fitted curve at half-maximal effect.

SMILES | activity change, negative = cytotoxicity | Potency
COc1cccc2sc(Nc3nnc(-c4ccc(F)cc4)o3)nc12 | inactive: -34.7% | –
Cc1cccc(C)c1NC(=O)Cn1nc(-c2ccccc2)nc1-c1ccccc1 | – | inconclusive: 6.51 µM [cytotoxic, partial curve]
COCCCNC(=O)CCCn1c(SCC(=O)c2ccc(Br)cc2)nc2c(sc3ccccc32)c1=O | inactive: -10.3% | –
CCOC(=O)c1c(C)n(C)c2ccc(OCCN(C)C)cc12 | – | inconclusive: 18.4 µM [cytotoxic, partial curve, poor fit]
CCOC(=O)/C=c1/s/c(=C/c2ccccc2OC)c(=O)n1CC(=O)N1CCOCC1 | – | inconclusive: 29.1 µM [rising, single point]
Cc1ccc2nc(-c3ccc(NC(=O)CN4C(=O)NC(C)(c5ccc(OC(F)F)cc5)C4=O)cc3)sc2c1 (stereo not given) | inactive: -6.88% | –
COc1ccc(OCC(=O)Nc2cccc3ncccc23)cc1 | – | inconclusive: 23.1 µM [cytotoxic, single point]
COc1cccc(CNC(=O)c2cccc(N3CCCS3(=O)=O)c2)c1 | inactive: -13.8% | –
Cc1ccc(Cl)c2sc(NC(=O)c3ccc(S(=O)(=O)N4CCCC4)cc3)nc12 | inactive: 6.17% | –
Nc1nccnc1C(=O)OCC(=O)NNC(=O)c1ccccc1 | inactive: 29.1% | –
O=CN/C=C/c1cccc(O)c1 | inactive: -2.49% | –
COc1ccc(-c2nc(-n3c(C)c(C(C)=O)c(C(C)=O)c3C)sc2C)cc1OC | – | active: 14.6 µM
CC(=O)Nc1ccc(C2=CC(=O)C[C@H](c3ccc4c(c3)OCO4)C2)cc1 | – | inconclusive: 4.11 µM [rising, full curve, poor fit]
Cc1nnsc1C(=O)N1CCC(CO)(Cc2ccccc2Cl)CC1 | inactive: -25.3% | –
O=C(CN1CCN(c2ncccn2)CC1)NCCC1=CCCCC1 | – | inconclusive: 18.4 µM [cytotoxic, single point]
CCc1cccc(C)c1NC(=O)CN1CCN(Cc2ccccc2Cl)S1(=O)=O | inconclusive: -31.7% [cytotoxic] | –
CN(C)S(=O)(=O)Oc1ccsc1C(=O)Nc1ccc(Cl)cc1 | inactive: -14.8% | –
[N-]=[N+]=CC(=O)C(c1ccccc1)(c1ccccc1)c1ccccc1 | – | inconclusive: 29.1 µM [cytotoxic, single point]
O=[N+]([O-])c1ccc(CNc2ccc(F)cc2)s1 | – | inconclusive: 16.4 µM [cytotoxic, single point]
COc1ccc(-c2csc3nc(-c4ccc(Cl)cc4)oc(=O)c23)cc1 | – | inconclusive: 6.51 µM [rising, full curve, poor fit]
C[C@@H](CN1CCC[C@H]1CN1C(N)=NC[C@@H]1Cc1ccccc1)N1C[C@@H](Cc2ccccc2)N(CCc2ccc(Cl)c(Cl)c2)C1=N | – | inconclusive: 3.66 µM [rising, full curve, poor fit]
O=C1O[C@@H](c2ccccc2)C[C@@H](O)C(=O)CCc2ccccc21 | – | inconclusive: 29.1 µM [rising, single point]
CC(C)Nc1nc(NCCN2CCCC2)c2sc(-c3ccccc3)cc2n1 | – | inconclusive: 9.2 µM [cytotoxic, partial curve]
O=C(CCNc1ccc(F)cc1)c1cccc([N+](=O)[O-])c1 | inactive: 16.8% | –

Retrieved one by one from the list above:
SMILES | activity change, negative = cytotoxicity | Potency
CCc1cccc(C)c1NC(=O)CN1CCN(Cc2ccccc2Cl)S1(=O)=O | inconclusive: -31.7% [cytotoxic] | –
[N-]=[N+]=CC(=O)C(c1ccccc1)(c1ccccc1)c1ccccc1 | – | inconclusive: 29.1 µM [cytotoxic, single point]

Following part

SMILES | activity change, negative = cytotoxicity | Potency
CCCN1CCN(CCCNC(=O)c2ccc(NC(=O)C3=C(C)OCCS3)cc2)CC1 | – | inconclusive: 2.31 µM [rising, full curve]
N#Cc1c(SCC(N)=O)nsc1SCc1ccccc1Cl | – | inconclusive: 23.1 µM [cytotoxic, partial curve]
Cc1sc2ncnc(SCC(=O)N3CCN(C(=O)c4ccco4)CC3)c2c1C | – | inconclusive: 16.4 µM [cytotoxic, partial curve]
CN(C)c1cc(N/N=C\c2ccccc2)nc(N(C)C)n1 | – | inconclusive: 29.1 µM [cytotoxic, single point]
CCOC(=O)C(C(=O)NCc1cccc(OC)c1)c1ncc(C(F)(F)F)cc1Cl (stereo not given) | – | inconclusive: 5.8 µM [cytotoxic, partial curve]
COc1ccccc1-n1cnc2cc(NCc3ccco3)ccc21 | – | active: 2.59 µM
COc1cccc(NC(=O)N2C3CCCC2CC(NC(C)=O)C3)c1 (stereo not given) | – | inconclusive: 29.1 µM [rising, single point]
O=C(Nc1cccc(-n2cnnn2)c1)C1CCCN(Cc2cccc(C(F)(F)F)c2)C1 (stereo not given) | – | inconclusive: 8.2 µM [cytotoxic, partial curve]
CC(C)N(Cc1cn(C)nc1-c1cccc(Cl)c1)Cc1nccn1C | – | inconclusive: 8.2 µM [cytotoxic, partial curve]
CCOC(=O)[C@]12CCC=C1N(Cc1ccccc1)C(=O)[C@H](CC(=O)NCc1ccc(OC)c(OC)c1)C2 | – | inconclusive: 18.4 µM [cytotoxic, single point]
O=C(COC(=O)CCSc1ccccc1)Nc1ccccc1Br | – | inconclusive: 16.4 µM [rising, single point]
Cc1ccc(S(=O)(=O)N2CCCCC2c2cccnc2)c(C)c1C (stereo not given) | – | active: 16.4 µM
O=c1[nH][nH]cc1C=Nc1cc(Cl)ccc1O | – | inconclusive: 0.0291 µM [rising, full curve, poor fit]
O=C(Nc1nc2ccccc2[nH]1)c1ccc(F)c(S(=O)(=O)N2CCOCC2)c1 | – | inconclusive: 18.4 µM [cytotoxic, partial curve]
CCOC(=O)N1CCN(C(=O)C(C)SCc2ccccc2)CC1 (stereo not given) | – | inconclusive: 29.1 µM [cytotoxic, partial curve, poor fit]
O=S(=O)(Nc1ccc2c(c1)OCCO2)c1ccc2oc3ccccc3c2c1 | – | inconclusive: 29.1 µM [cytotoxic, single point]
COc1ccc2cc3cc(C(=O)N4CCCCCC4)oc3nc2c1 | – | inconclusive: 20.6 µM [cytotoxic, single point]
COc1ccc(N2CC(C(=O)NCCS(=O)(=O)N3CCN(c4ccccc4)CC3)CC2=O)cc1 (stereo not given) | – | inconclusive: 29.1 µM [rising, single point]
O=C(CCCN1CCN(c2ccccn2)CC1)c1ccc(F)cc1 | – | inconclusive: 6.51 µM [cytotoxic, partial curve, poor fit]
CN(CC(=O)Nc1cccc(F)c1)C(=O)c1cccc(S(=O)(=O)N2CC3(C)CC2CC(C)(C)C3)c1 (stereo not given) | – | inconclusive: 23.1 µM [cytotoxic, single point]
O=C(NNC(=O)c1cc(-c2ccco2)nc2ccccc12)c1ccccc1 | inactive: 4.6% | –
CC(C)OCCCNC(=O)c1cn(C)c2ccc(S(=O)(=O)N(C)C3CCCCC3)cc2c1=O | – | inactive
O=C(Nc1cc(Sc2ccccn2)cc([N+](=O)[O-])c1)c1cccc(F)c1 | – | active: 13 µM
Cn1nnnc1NCc1cccc(Cl)c1Cl | inactive: 15.4% | –

Given as tab-separated lines: entries from further up
SMILES	activity change, negative = cytotoxicity	Potency
O=S(=O)(Nc1ccc2c(c1)OCCO2)c1ccc2oc3ccccc3c2c1	–	inconclusive: 29.1 µM [cytotoxic, single point]
COc1ccc2cc3cc(C(=O)N4CCCCCC4)oc3nc2c1	–	inconclusive: 20.6 µM [cytotoxic, single point]
COc1ccc(N2CC(C(=O)NCCS(=O)(=O)N3CCN(c4ccccc4)CC3)CC2=O)cc1 (stereo not given)	–	inconclusive: 29.1 µM [rising, single point]

Additional entries:

SMILES | activity change, negative = cytotoxicity | Potency
CC1CCN(c2ccc(C(=O)NCCc3ccccc3)cn2)CC1 | – | active: 13 µM
Cc1onc(-c2ccccc2Cl)c1C(=O)NCc1ccccc1 | – | inconclusive: 23.1 µM [cytotoxic, single point]
Cc1ccc2cc(C#N)c(SCc3nnc(-c4ccccc4[N+](=O)[O-])o3)nc2c1 | – | active: 13 µM
CC(C)(C)NC(=O)c1cccc(NC(=O)c2ccco2)c1 | – | inconclusive: 18.4 µM [cytotoxic, single point]
O=C(N/N=C/c1ccccc1)C1CCCN1C(=O)c1cc([N+](=O)[O-])cc([N+](=O)[O-])c1 (stereo not given) | – | inconclusive: 16.4 µM [rising, partial curve]
Cc1c(C)c(C)c(S(=O)(=O)NCCC(=O)N2CCN(Cc3ccc(C#N)cc3)CC2)c(C)c1C | – | inconclusive: 29.1 µM [cytotoxic, single point]
Cc1ccc(CNC(=O)CCCN2C(=S)NC(C)(C)CC2C)cc1 (stereo not given) | inactive: -22.7% | –
CCc1cccc(NC(=O)c2cnc(N3CCOCC3)c3ccccc23)c1 | inactive: -2.64% | –
CCCCOCCCNC(=O)C[C@@H]1C[C@@]2(C(=O)OCC)CCC=C2N(Cc2ccc(Cl)cc2Cl)C1=O | – | active: 18.4 µM
CCOC(=O)c1cc(-c2ccccc2)n(CCCC(=O)Nc2ccc(C)c(Cl)c2)c1C | inactive: -17.1% | –
CCn1c(SCC(=O)Nc2ccccc2C)nc2nc3c(cc2c1=O)COC(C)(C)C3 | inactive: -19.1% | –
CCCS(=O)(=O)NC(=O)C1(C)CCN(C(=O)c2ccc3ccccc3c2)C1 (stereo not given) | inactive: 4.86% | –
COc1cc(-c2nnc(SCc3ccccc3Cl)o2)cc(OC)c1OC | – | active: 2.31 µM
COc1ccc(CNS(=O)(=O)c2ccc(C(=O)N(C)C)s2)cc1 | – | inconclusive: 25.9 µM [rising, single point]
CSc1ccc(CN2CCN(C(=O)c3ccc([N+](=O)[O-])cc3)CC2)cc1 | – | inconclusive: 25.9 µM [cytotoxic, single point]
CC(C)CC(C(=O)OCC(=O)N1CCN(c2ccccc2)CC1)N1C(=O)c2ccccc2C1=O (stereo not given) | – | active: 16.4 µM
COc1ccccc1N(CC(=O)N/N=C(\C)c1ccc(F)cc1)S(=O)(=O)c1ccccc1 | – | inconclusive: 2.91 µM [cytotoxic, full curve]
CCOC(=O)c1scc(-c2ccccc2)c1S(=O)(=O)Nc1ccccc1OC | – | inconclusive: 18.4 µM [cytotoxic, single point]
CC1=NN(c2ccccc2)C(=O)C1=Cc1ccccc1 | – | inconclusive: 16.4 µM [rising, partial curve]
COc1ccc(-c2nc(N3CCC(C)CC3)[nH]c(=O)c2C#N)cc1 | – | inconclusive: 20.6 µM [cytotoxic, single point]
COc1ccccc1/C=C/C(=O)NCC(=O)N/N=C/c1ccccc1 | – | inconclusive: 7.31 µM [rising, partial curve, poor fit]
O=C(Nc1ccc(Cl)cn1)c1cccc2ccccc12 | – | inconclusive: 20.6 µM [cytotoxic, single point]
